# From PubChem BioAssay AID2502 (National Center for Advancing Translational Sciences (NCATS), 2010)
# The inconclusive results got no clear call from the source; some entries with a clear call stand among them for comparison. A potency beside an inconclusive call is a rough fit, not a confirmed value. Activity calls are given as the source filed them. The call rests on the fitted dose curve; in most records, active means well fitted curve in the direction sought with a large enough effect; inconclusive means small, poorly fitted or top-dose-only effect, or another doubt; inactive means no such curve, though single readings can be large or run the other way.
# Test: Confirmatory Assay for Inhibitors of Human Galactokinase (GALK): Phenol-HRP redox assay counterscreen for probe SAR
# Settings: Phenol red-HRP H2O2 redox cycling, absorbance 600 nm
# Excerpt: NIH Molecular Libraries Probe Production Centers Network [MLPCN] NIH Chemical Genomics Center [NCGC] MLPCN Grant: R03 MH085689-01 Assay Submitter (PI): Kent Lai (University of Utah School of Medicine, 50 N Mario Capecchi Drive, Salt Lake City, UT 84132) NCGC Assay Overview: One mM dithiothreitol (DTT) was used as a reducing agent to maintain the galactokinase (GALK) enzyme in its active form in the GALK qHTS screen (AID: 1868). However, it has been shown that in the presence of DTT a number of compounds also undergo redox recyling, generating a significant amount of H2O2 that can oxidize crucial cysteine residues in the enzyme, leading to and a false-positive result. To evaluate and flag redox recycling compounds for compounds re-acquired from the qHTS screen, an endpoint colorimetric assay developed by Johnston et al. was adopted and optimized for a 1536-well plate format. In brief, the assay detects the presence of H2O2 by following the change in absorbance at 600 nm due to oxidation of phenol red (Sigma, cat# 114537) catalyzed by horseradish peroxidase (HRP; Invitrogen). A stop reagent, 1N NaOH was added prior to reading the absorbance. DMSO and different concentrations of hydrogen peroxide (Sigma, cat# 216763) in the GALK buffer were used as negative and positive controls respectively.
# NCGC Assay Protocol Summary: Two uL/well of GALK buffer (20mM HEPES pH8.0, 5 mM MgCl2, 60 mM NaCl, 1 mM DTT, 0.01% BSA final concentration) was dispensed into a 1536-well assay plates (Greiner, black clear bottom plates) with Aurora Discovery BioRAPTR Flying Reagent Dispenser (FRD; Beckton-Dickenson). Compound and control solutions (23 nL each) were transferred to the assay plate in their respective wells using Kalypsys pin tool equipped with a 1536-pin tool head and incubated at room temperature for 30 min. Presence of H2O2 produced by redox cycling compounds was detected by adding 2 uL/well phenol red - HRP detection reagent ([…] phenol red in 1x Hanks Balanced Salt Solution, 25 U/mL HRP final concentrations). After 15 min of room temperature incubation, the reaction was stopped by adding 2 uL/well 1N NaOH and incubated for an additional 1 hr at room temperature. The absorbance at 600 nm was measured using the ViewLux plate reader (Perkin Elmer, Waltham, MA) with 6000 light energy, 2 sec exposure, and 2x binning instrument settings.
Structure (SMILES),Potency,max response
CC1(C)CC(=O)C2=C(C1)NC(Nc1nc3ccccc3o1)=NC2c1cccc(F)c1 (centres undefined),"inconclusive: 79.8 µM [falling, single point]",
O=C1CCCC2=C1C1(CCC1)N=C(Nc1nc3ccccc3o1)N2,,inactive: -2.94%
Cc1ccc2nc(NC3=NC4(CCCC4)C4=C(CCCC4=O)N3)oc2c1,,inactive: -9.86%
CC1(C)CC(=O)C2=C(C1)NC(Nc1nc3ccccc3o1)=NC2c1cccc(O)c1 (centres undefined),"inconclusive: 11.3 µM [falling, single point]",
